Tested on: adult patients with MDD assessed to be at imminent risk for suicide
Test: Treatment disposition, Study 2 (Example 5)
Format: in vivo, human
Conditions: Esk 84 mg + SOC, double-blind phase, all randomized
Experimental: A total of 273 subjects were screened across 50 sites in 12 countries throughout the study period. Of those, 230 subjects were randomized to 1 of 2 treatment groups in a 1:1 ratio (115 in esketamine 84 mg+SOC and 115 in placebo+SOC). Randomization was stratified by study center and by the physician's assessment of the subject's need of standard of care antidepressant treatment (i.e., antidepressant monotherapy or an antidepressant plus augmentation therapy); the standard of care was determined prior to randomization on Day 1. […] The mean age was 40.8 years, ranging from 18 to 64 years.

`CN[C@]1(c2ccccc2Cl)CCCCC1=O` [esketamine, (S)-2-(2-chlorophenyl)-2-(methylamino)cyclohexanone] was tested, and the “Completed study treatment, subjects %” value was 78.3%, the “Discontinuation due to lack of efficacy, subjects %” value was 1.7% and the “Discontinuation: lost to follow-up, subjects %” value was 0.9%. For the same molecule, the “Discontinuation: other reason, subjects %” value was 2.6%, the “Discontinuation: withdrawal by subject, %” value was 8.7% and the “Discontinued study treatment, subjects %” value was 21.7%.

From patent US20220304950A1, “[…] THE TREATMENT OF PATIENTS WITH MAJOR DEPRESSIVE DISORDER, INCLUDING SUICIDALITY” (JANSSEN PHARMACEUTICALS, INC., priority 2019, published 2022)
